# Hit rate of the full screen: of about 300,000 compounds, about 3,700 (1.2%) were called active. Inconclusive means that the source gave no clear call. Such entries were picked first, then a sample of the others. The call rests on the fitted dose curve; tested in HEK293 cells. A potency beside an inconclusive call is a rough fit, not a confirmed value.
# Assay: qHTS for Inhibitors of binding or entry into cells for Lassa Virus; further: nearly all actives have a fitted effect of over 50% in size
# Conditions: Lassa virus pseudotype entry inhibition, cell reporter; activity change, negative = inhibition: at 37.9 µM (top of the series) unless noted
# On the % scale 0 is the no-effect control and ±100 the full control effect; potency means the concentration at half of the fitted maximal effect.
Compound,Potency,"activity change, negative = inhibition"
Cc1cccc(-c2n[nH]c(=S)n2/N=C/c2ccc(C)s2)c1,"inconclusive: 23.1 µM [inhibitor, partial curve, poor fit]",
COc1cc(NC(=O)Cn2cnc3sc(C)c(S(=O)(=O)N4CCOCC4)c3c2=O)cc(OC)c1OC,,inactive: 4.09% [at 46.1 µM]
CC1CCC(NC(=O)c2ccc(CS(=O)(=O)c3c(Cl)cccc3Cl)o2)CC1 (configuration not stated),"inconclusive: 3.98 µM [inhibitor, full curve, poor fit]",
CCOC(=O)c1ccc2c(c1)nc(C1CCN(S(=O)(=O)c3cccs3)CC1)n2CC,"inconclusive: 20.6 µM [inhibitor, single point]",
CN1C(=O)CCS(=O)(=O)C1c1ccc(Cl)cc1 (configuration not stated),"inconclusive: 0.0116 µM [inhibitor, partial curve, poor fit]",
O=C(CNc1cccc(C(F)(F)F)c1)N/N=C/c1cccc(Br)c1,"inconclusive: 28.2 µM [inhibitor, single point]",
NNC(=O)c1cnn(-c2ccccc2)c1C(F)(F)F,"inconclusive: 0.398 µM [activator, full curve, poor fit]",
Cc1onc(-c2ccccc2)c1C(=O)N(Cc1ccco1)Cc1cccs1,"inconclusive: 22.4 µM [inhibitor, single point]",
CS(=O)(=O)N1CCCc2cc(C(=O)Nc3cccc(C(F)(F)F)c3)ccc21,"inconclusive: 8.91 µM [inhibitor, partial curve]",
COc1ccccc1OCc1nc(-c2cccc([N+](=O)[O-])c2)no1,"inconclusive: 11.2 µM [inhibitor, partial curve, poor fit]",
COc1ccc(N(CC(C)C)S(=O)(=O)c2nnc(NC(=O)CC(C)C)s2)cc1,,inactive: -10.1% [at 46.1 µM]
CCCCn1c(N)c(N(CCOC)C(=O)c2cc(Cl)nc3ccccc23)c(=O)[nH]c1=O,,inactive: 4.63%
Cc1cccc(OCC(=O)N(Cc2ccccc2)c2ccccn2)c1,,inactive: -10.5% [at 46.1 µM]
c1ccc(CSc2ccc(-c3ccc4c(c3)OCO4)nn2)cc1,"inconclusive: 3.16 µM [inhibitor, full curve]",
O=C(NC(=S)Nc1ccc2[nH]c(=O)[nH]c2c1)c1ccccc1F,,inactive: -3.79% [at 46.1 µM]
Cc1ccc(C(=O)Nc2ccc3cn[nH]c3c2)cc1S(=O)(=O)N1CCCCC1,"inconclusive: 0.708 µM [activator, full curve, poor fit]",
CCCSc1nnc(C(C)C)n1N,"inconclusive: 14.6 µM [activator, partial curve, poor fit]",
O=C(NCc1nnc(SCC(=O)N2CCC(Cc3ccccc3)CC2)o1)c1ccco1,"inconclusive: 0.794 µM [inhibitor, single point]",
CC(C)c1ccc2oc(-c3ccc(NC(=O)c4cc5ccccc5o4)cc3)nc2c1,"inconclusive: 5.62 µM [inhibitor, partial curve, poor fit]",
COc1cccc(-c2cc(C(=O)Nc3ccn(Cc4ccc(C)cc4)n3)no2)c1,"inconclusive: 35.5 µM [inhibitor, single point]",
O=c1c2ccccc2nc(SCc2cn3ccsc3n2)n1-c1ccccc1,"inconclusive: 35.5 µM [inhibitor, single point]",
NC(=S)NN=C(c1ccc(F)cc1)C1CC1,,inactive: 3.59%
O=C(/C=C/c1ccccc1)OCC(=O)N1CCN(c2ccccc2)CC1,,inactive: 4.77%
CCC1CN(C(=O)N2CCC(C(=O)NCCc3ccccc3OC)CC2)c2ccccc2O1 (configuration not stated),,inactive: -8.16% [at 46.1 µM]

Compound,Potency,"activity change, negative = inhibition"
O=C(NNC(=O)C12CC3CC(CC(C3)C1)C2)c1ccccc1O,,inactive: 1.22%
Cc1cc(C(=O)COC(=O)CN(C)S(=O)(=O)c2ccc(Cl)cc2)c(C)n1Cc1cccs1,,inactive: -4.5%
CSc1ccc(Cl)c(C(=O)N(C)CC(=O)Nc2ccc(N3CCOCC3)cc2)c1,,inactive: -25.6%
CC(C)NC(=O)c1ccccc1NC(=O)C(C)Oc1ccccc1 (configuration not stated),"inconclusive: 35.5 µM [inhibitor, single point]",
Cc1ccc2nc(N3CCN(c4cccc(C)c4C)CC3)c3nncn3c2c1,"inconclusive: 3.16 µM [inhibitor, partial curve, poor fit]",
COc1ccc2cc(S(=O)(=O)N3CCCC(C)C3)ccc2c1 (configuration not stated),"inconclusive: 35.5 µM [inhibitor, single point]",
C=CCNC(=S)Nc1ccc(OC(F)F)c(Cl)c1,"inconclusive: 4.47 µM [inhibitor, full curve, poor fit]",
Cc1ccc(C)c(N2CCN(S(=O)(=O)c3cnc(N)nc3)CC2)c1,,inactive: 20.2% [at 46.1 µM]
O=[N+]([O-])c1cccc(C(=S)N2CCN(c3ccc(F)cc3)CC2)c1,"inconclusive: 35.5 µM [inhibitor, single point]",
CCN1CCN(C(=O)c2ccc3c(=O)n(Cc4ccccc4OC)c(=S)[nH]c3c2)CC1,,inactive: 0.176%
Cc1ccc(NC(=O)Cn2c(=O)n(Cc3ccc4c(c3)OCO4)c(=O)c3ccccc32)c(C)c1,,inactive: 7.42% [at 46.1 µM]
COC(=O)C1C2c3ccccc3C(c3ccccc32)C1(C)C(=O)OC (configuration not stated),"inconclusive: 3.55 µM [inhibitor, full curve, poor fit]",
O=C(NCC1COc2ccccc2O1)c1cc(S(=O)(=O)N2CCOCC2)c(Cl)cc1Cl (configuration not stated),"inconclusive: 11.2 µM [inhibitor, single point]",
CN(C(=O)CNC(=O)OCc1ccccc1)c1ccc(Br)cc1C(=O)c1ccccc1Cl,"inconclusive: 4.47 µM [inhibitor, partial curve]",
CC(=O)Nc1sc(NC(=O)c2ccccc2)nc1-c1cccs1,,inactive: 25%
CCN1C(=O)/C(=C/c2ccc3c(c2)CCN3CCCCl)C(=O)NC1=S,,inactive: -17.9%
CC12CCC(=O)C=C1CCC1C2CCC2(C)C(c3csc(N)n3)CCC12 (configuration not stated),active: 12.6 µM,
COc1ccc(CCNC(=O)c2cnc3n(c2=O)CCS3)cc1OC,,inactive: -2.25%
CC(C)(C)c1ccc(C(=O)O/N=C(\N)c2ccccn2)cc1,"inconclusive: 5.62 µM [inhibitor, full curve, poor fit]",
O=C(c1cccc(Cl)c1)N1CCC(=O)N(C(COCc2ccccc2)Cc2ccccc2)CC1 (configuration not stated),active: 4.61 µM,
CCc1ccc(-c2cc3c(=O)n(CC(=O)NCCN4CCCCC4C)nc(C)n3n2)cc1 (configuration not stated),,inactive: 16.3% [at 46.1 µM]
COC(=O)/C=C/c1ccc2c(c1)OCO2,,inactive: -7.42% [at 46.1 µM]
COc1ccc(-c2cc(C(C)=O)c(C)n2CCC(=O)Nc2ccc(C(F)(F)F)cc2)cc1,"inconclusive: 10 µM [inhibitor, partial curve, poor fit]",
O=C(NN1C(=O)/C(=C/C=C/c2ccco2)SC1=S)c1ccncc1,,inactive: -27.3% [at 46.1 µM]

Compound,Potency,"activity change, negative = inhibition"
CCOc1cc2c(cc1OCC)-n1cccc1C(c1ccc(C(C)C)cc1)NC2 (configuration not stated),"inconclusive: 10 µM [inhibitor, partial curve]",
Cc1cccc(C)c1C(=NCCN(C)C)c1ccccc1,"inconclusive: 22.4 µM [inhibitor, single point]",
O/N=C/c1cc(Cl)ccc1OCc1ccccc1Cl,"inconclusive: 35.5 µM [inhibitor, single point]",
COC(=O)c1cc(Br)ccc1NC(=O)Nc1ccc(C)cc1,,inactive: 7.64%
CCOC(=O)c1cn2nc(-c3ccc(OC)cc3)cc2nc1C1CCN(C(=O)OC(C)(C)C)CC1,"inconclusive: 5.8 µM [inhibitor, partial curve, poor fit]",
CCN(CC)c1ccc(NC(=O)c2ccco2)cc1,"inconclusive: 9.2 µM [inhibitor, partial curve, poor fit]",
O=S1(=O)C=C(SCc2ccc(Cl)c(Cl)c2)Nc2ccccc21,"inconclusive: 17.8 µM [inhibitor, single point]",
COc1ccc(C(=O)O/N=C(\N)Cc2cccs2)cc1OC,active: 1.78 µM,
Cn1c(NC(=O)C[n+]2cc(-c3ccc(Cl)cc3)n3c2CCC3)cc(=O)n(C)c1=O,,inactive: 5.32%
CC(=O)Oc1ccccc1-c1nc(/C=C/c2ccccc2)no1,"inconclusive: 15.8 µM [inhibitor, single point]",
COc1ccc2nc(NC(=O)CSC3=NCCS3)sc2c1,,inactive: -0.78%
Cc1ccc(S(=O)(=O)NN=C2C3CC4CC(C3)CC2C4)cc1,,inactive: 12.3%
N#Cc1nc(-c2ccc(Cl)cc2)oc1NCc1cccc2c1OCO2,,inactive: -3.39%
O=C(N/N=C/c1ccco1)c1cc(C2CC2)[nH]n1,,inactive: -12.7%
O=C(C1CCCN(S(=O)(=O)c2ccc(Br)cc2)C1)N1CCOCC1 (configuration not stated),"inconclusive: 1.41 µM [activator, full curve, poor fit]",
Cc1ccc(OCC(=O)Nc2ccc(S(=O)(=O)N3CCOCC3)cc2)c(Br)c1,"inconclusive: 12.6 µM [inhibitor, partial curve, poor fit]",
O=C(c1ccco1)N1c2ccccc2Sc2ccccc21,"inconclusive: 12.6 µM [inhibitor, single point]",
S=C(Nc1ccc(Cl)cc1)Nc1cccc2cnccc12,"inconclusive: 11.2 µM [activator, partial curve, poor fit]",
CC1=Nc2cc(C(=O)NCCCOC(C)C)ccc2Sc2ccc(C)cc21,"inconclusive: 2.59 µM [inhibitor, full curve]",
Cc1ccc(N2C(=O)CN(Cc3ccccc3)C2=S)cc1C,"inconclusive: 7.08 µM [inhibitor, full curve]",
CCC1=NN(C(=O)c2cccnc2)C(O)(C(F)(F)F)C1 (configuration not stated),,inactive: -0.837%
O=Cc1[nH]c2ccccc2c1N(C(=O)CCl)c1ccccc1,,inactive: -8.03%
CCOC(=O)CNC(=O)O[C@H]1C(=O)c2ccc(OC)cc2O[C@@H]1c1ccc2c(c1)OCO2,"inconclusive: 1.06 µM [activator, single point]",
O=C(CSc1ncc(-c2ccccc2)[nH]1)Nc1cccc(C(F)(F)F)c1,,inactive: 9.92% [at 46.1 µM]

# Quoted at random: 3 entries already listed, in no set order.
Compound,Potency,"activity change, negative = inhibition"
N#Cc1nc(-c2ccc(Cl)cc2)oc1NCc1cccc2c1OCO2,,inactive: -3.39%
NNC(=O)c1cnn(-c2ccccc2)c1C(F)(F)F,"inconclusive: 0.398 µM [activator, full curve, poor fit]",
CCN1C(=O)/C(=C/c2ccc3c(c2)CCN3CCCCl)C(=O)NC1=S,,inactive: -17.9%
